Read-outs that look alike come from different tables or passages of the source. No constants are given. Whether binding was seen depends on the method and setting. Binding seen in cells or lysates may run through a third protein. Some results given as binding are weak or reduced against the parent protein; the word gives no strength.
B1: Cdt1-3FLAG (natural protein, human, UniProt Q9H211 1-546, looked up)
chain: MEQRRVTDFFARRRPGPPRIAPPKLACRTPSPARPALRAPASATSGSRKRARPPAAPGRDQARPPARRRLRLSVDEVSSPSTPEAPDIPACPSPGQKIKKSTPAAGQPPHLTSAQDQDTISELASCLQRARELGARVRALKASAQDAGESCTPEAEGRPEEPCGEKAPAYQRFHALAQPGLPGLVLPYKYQVLAEMFRSMDTIVGMLHNRSETPTFAKVQRGVQDMMRRRFEECNVGQIKTVYPASYRFRQERSVPTFKDGTRRSDYQLTIEPLLEQEADGAAPQLTASRLLQRRQIFSQKLVEHVKEHHKAFLASLSPAMVVPEDQLTRWHPRFNVDEVPDIEPAALPQPPATEKLTTAQEVLARARNLISPRMEKALSQLALRSAAPSSPGSPRPALPATPPATPPAASPSALKGVSQDLLERIRAKEAQKQLAQMTRCPEQEQRLQRLERLPELARVLRSVFVSERKPALSMEVACARMVGSCCTIMSPGEMEKHLLLLSELLPDWLSLHRIRTDTYVKLDKAADLAHITARLAHQTRAEEGL
notes: Cdt1, human; also called FLAG-tagged Cdt1; Cdt1-3FLAG (WT); source: Sf21 insect cells (baculovirus), purified (DEAE flowthrough, anti-FLAG resin, 3× FLAG peptide elution); not shown: 3FLAG, C-terminal, kept

Chains of the proteins cited; added tags and fusions are not shown. Lines headed by an entry give the natural chain unless they say otherwise; changes in a name come on top. A line that says so, or that is headed by a name, gives the form on record, which may keep a tag or linker. Residues count along the entry.
UniProt Q9NZJ0: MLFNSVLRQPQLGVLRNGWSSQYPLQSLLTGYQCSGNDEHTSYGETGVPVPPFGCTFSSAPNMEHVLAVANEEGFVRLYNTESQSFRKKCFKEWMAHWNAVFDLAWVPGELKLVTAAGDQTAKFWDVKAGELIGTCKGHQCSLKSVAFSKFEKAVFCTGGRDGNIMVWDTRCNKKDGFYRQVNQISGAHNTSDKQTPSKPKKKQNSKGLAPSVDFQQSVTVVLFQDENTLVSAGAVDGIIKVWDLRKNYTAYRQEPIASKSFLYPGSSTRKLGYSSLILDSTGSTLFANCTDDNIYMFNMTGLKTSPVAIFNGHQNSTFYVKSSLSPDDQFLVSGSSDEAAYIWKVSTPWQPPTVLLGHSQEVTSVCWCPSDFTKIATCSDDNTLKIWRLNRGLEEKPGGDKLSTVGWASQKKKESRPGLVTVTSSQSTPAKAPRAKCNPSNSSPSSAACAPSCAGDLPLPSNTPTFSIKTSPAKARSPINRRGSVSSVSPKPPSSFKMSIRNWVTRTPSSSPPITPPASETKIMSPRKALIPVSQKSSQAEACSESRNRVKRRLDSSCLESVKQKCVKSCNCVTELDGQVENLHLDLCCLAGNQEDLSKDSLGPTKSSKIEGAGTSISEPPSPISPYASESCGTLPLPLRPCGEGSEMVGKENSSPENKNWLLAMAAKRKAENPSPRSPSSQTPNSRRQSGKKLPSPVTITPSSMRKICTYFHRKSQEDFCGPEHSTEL
HA-Cdt2^1–417-3FLAG: residues 1-417 of Q9NZJ0
3FLAG-3NLS-myc-Cdt2^390–730: residues 390-730 of Q9NZJ0
Cdt2^PIP-3A-3FLAG, insect cells (Q9NZJ0, form named): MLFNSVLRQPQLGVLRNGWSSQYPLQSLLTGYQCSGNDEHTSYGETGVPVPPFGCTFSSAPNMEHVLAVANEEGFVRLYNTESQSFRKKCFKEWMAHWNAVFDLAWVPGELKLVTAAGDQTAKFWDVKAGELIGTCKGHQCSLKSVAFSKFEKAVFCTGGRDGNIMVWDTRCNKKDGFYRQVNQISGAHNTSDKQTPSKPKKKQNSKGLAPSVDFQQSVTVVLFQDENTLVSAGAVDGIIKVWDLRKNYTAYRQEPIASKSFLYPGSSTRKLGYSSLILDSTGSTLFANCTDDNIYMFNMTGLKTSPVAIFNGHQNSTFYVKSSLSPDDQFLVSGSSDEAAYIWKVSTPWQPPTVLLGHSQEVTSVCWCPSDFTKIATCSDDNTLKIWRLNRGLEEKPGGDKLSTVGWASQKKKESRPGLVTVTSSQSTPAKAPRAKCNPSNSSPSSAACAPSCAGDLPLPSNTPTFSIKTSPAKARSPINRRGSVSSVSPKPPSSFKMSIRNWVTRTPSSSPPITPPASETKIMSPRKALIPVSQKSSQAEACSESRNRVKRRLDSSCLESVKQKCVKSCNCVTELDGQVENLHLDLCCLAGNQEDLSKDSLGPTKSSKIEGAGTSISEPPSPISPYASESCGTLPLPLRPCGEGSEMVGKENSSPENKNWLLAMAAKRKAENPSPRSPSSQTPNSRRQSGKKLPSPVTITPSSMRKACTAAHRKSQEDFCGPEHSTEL
UniProt Q16531: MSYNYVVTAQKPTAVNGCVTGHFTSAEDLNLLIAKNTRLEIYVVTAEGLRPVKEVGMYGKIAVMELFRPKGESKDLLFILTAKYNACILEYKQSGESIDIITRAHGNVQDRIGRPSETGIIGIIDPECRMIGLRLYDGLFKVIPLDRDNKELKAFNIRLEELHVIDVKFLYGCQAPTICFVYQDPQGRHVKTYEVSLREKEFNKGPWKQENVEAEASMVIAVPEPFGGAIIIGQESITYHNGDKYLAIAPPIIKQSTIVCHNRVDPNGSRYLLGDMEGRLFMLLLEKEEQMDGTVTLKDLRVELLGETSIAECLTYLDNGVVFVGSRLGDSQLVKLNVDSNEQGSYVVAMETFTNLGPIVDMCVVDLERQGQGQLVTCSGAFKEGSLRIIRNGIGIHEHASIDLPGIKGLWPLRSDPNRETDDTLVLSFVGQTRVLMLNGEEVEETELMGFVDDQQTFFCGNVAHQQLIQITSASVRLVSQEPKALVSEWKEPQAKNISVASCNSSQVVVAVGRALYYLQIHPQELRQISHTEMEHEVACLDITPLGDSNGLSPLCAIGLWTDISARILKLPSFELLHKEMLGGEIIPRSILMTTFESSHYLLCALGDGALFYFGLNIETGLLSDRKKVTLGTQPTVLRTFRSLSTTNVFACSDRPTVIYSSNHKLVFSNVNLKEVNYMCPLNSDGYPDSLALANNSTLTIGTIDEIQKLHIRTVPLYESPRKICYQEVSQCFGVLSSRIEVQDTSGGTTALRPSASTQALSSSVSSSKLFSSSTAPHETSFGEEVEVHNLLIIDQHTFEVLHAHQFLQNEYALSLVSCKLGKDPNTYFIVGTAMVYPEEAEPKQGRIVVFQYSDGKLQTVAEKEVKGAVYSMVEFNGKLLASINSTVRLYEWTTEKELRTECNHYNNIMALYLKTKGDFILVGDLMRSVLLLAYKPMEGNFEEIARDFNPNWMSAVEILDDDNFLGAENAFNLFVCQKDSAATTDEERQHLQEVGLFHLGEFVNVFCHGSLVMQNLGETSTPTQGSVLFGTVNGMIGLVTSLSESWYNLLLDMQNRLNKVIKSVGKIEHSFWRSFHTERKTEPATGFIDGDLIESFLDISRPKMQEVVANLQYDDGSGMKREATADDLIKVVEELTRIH
UniProt Q13619: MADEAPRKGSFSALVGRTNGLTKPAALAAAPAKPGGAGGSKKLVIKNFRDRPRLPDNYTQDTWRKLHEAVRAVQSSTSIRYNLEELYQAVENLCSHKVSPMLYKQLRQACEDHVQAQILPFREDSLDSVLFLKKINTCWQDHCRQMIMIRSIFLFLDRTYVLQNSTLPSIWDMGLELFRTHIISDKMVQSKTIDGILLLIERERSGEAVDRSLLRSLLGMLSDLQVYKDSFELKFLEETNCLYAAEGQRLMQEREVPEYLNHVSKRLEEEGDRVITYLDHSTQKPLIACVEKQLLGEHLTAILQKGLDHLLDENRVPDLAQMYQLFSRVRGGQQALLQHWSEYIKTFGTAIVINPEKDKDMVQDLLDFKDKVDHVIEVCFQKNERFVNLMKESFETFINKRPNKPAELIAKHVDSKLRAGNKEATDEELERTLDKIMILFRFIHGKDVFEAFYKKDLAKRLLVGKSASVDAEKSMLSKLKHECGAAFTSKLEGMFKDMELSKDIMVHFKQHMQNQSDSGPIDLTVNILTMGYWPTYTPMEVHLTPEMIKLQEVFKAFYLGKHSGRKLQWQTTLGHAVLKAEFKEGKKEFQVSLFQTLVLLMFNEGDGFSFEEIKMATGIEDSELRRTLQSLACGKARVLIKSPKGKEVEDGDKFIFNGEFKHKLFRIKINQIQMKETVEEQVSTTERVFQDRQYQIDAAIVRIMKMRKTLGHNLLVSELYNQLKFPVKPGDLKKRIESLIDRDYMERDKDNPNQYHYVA

Tests used:
[1] = target: Cdt2-3FLAG (WT), insect cells (human) (UniProt Q9NZJ0); assay: co-IP; Sf21 cells co-infected with baculoviruses for Cdt2-3FLAG (WT or PIP-3A), DDB1, HA-Cul4 and His-myc-Rbx1; lysate in 0.5 M NaCl, 0.5% NP-40 buffer B, DEAE flowthrough, anti-FLAG resin, elution with 3FLAG peptide; Western blots for each protein; glycerol gradient
[2] = target: Cdt2^PIP-3A-3FLAG, insect cells (human) (UniProt Q9NZJ0); assay: as above
[3] = target: HA-Cdt2^PIP-3A-3FLAG (human) (UniProt Q9NZJ0); assay: co-IP; HEK293 / HEK293T cells transfected with FLAG-tagged Cdt2 constructs, with or without UV (50 J/m^2); fixed with 0.02% formaldehyde 10 min, lysed in 0.1% Triton X-100 mCSK buffer (10 mM Pipes pH 7.9, 100 mM NaCl), sonicated; anti-FLAG magnetic beads 1 h at 4°C; blots for PCNA, DDB1, Cul4A …
[4] = target: HA-Cdt2^WT(1–730)-3FLAG (human) (UniProt Q9NZJ0); assay: as above
[5] = target: 3FLAG-3NLS-myc-Cdt2^390–730 (human) (UniProt Q9NZJ0); assay: as above
[6] = target: HA-Cdt2^1–417-3FLAG (human) (UniProt Q9NZJ0); assay: as above
[7] = target: HA-Cdt2^WT(1–730)-3FLAG (human) (UniProt Q9NZJ0); assay: as above; remark: listed apart in the source

Row | Molecule | binding [1] | binding [2] | binding [3] | binding [4] | further results
1 | DDB1, insect cells (from UniProt Q16531 1-1140) | binds | binds |  |  | 
2 | Cul4A, endogenous (from UniProt Q13619 1-759) |  |  | binds | binds | 
3 | DDB1, endogenous (from UniProt Q16531 1-1140) |  |  | binds | binds | binding [5]: no binding; binding [6]: binds
4 | HA-Cul4A, insect cells (from UniProt Q13619 1-759) | binds | binds |  |  | 
5 | B1 |  |  |  |  | binding [7]: binds

Source: paper PMC6312923 (Life Science Alliance, 2018)
